# Measurements as given in paper PMC10863984.
# Amino acid sequences for entries named in this document (tags omitted).
# UniProt O60016, whole entry: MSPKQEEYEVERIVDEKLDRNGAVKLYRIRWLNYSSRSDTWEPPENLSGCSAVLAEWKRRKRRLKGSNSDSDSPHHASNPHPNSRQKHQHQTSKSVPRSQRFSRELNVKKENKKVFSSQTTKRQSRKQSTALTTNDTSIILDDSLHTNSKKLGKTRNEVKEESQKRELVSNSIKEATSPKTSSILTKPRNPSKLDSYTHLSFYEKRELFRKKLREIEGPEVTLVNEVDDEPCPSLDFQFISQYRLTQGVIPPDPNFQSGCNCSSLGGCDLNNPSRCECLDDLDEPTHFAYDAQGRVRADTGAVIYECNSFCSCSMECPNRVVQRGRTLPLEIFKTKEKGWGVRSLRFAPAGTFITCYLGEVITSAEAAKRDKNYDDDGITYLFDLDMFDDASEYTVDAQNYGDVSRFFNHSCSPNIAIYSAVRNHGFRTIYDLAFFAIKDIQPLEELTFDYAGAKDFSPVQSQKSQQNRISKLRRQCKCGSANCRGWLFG
# Where two headings read alike, the source gives them in different places. Results are given in words; binding and its absence hold for the method and conditions named. Binding seen in cells or lysates may run through a third protein. Some binding calls cover weakened binding; strength is not graded here. For some of these results: Sequences can lack the tags named with a protein.
# T1: 6His-Swi6 (heterochromatin protein Swi6^HP1) (S. pombe) (UniProt P40381)
# T1 sequence: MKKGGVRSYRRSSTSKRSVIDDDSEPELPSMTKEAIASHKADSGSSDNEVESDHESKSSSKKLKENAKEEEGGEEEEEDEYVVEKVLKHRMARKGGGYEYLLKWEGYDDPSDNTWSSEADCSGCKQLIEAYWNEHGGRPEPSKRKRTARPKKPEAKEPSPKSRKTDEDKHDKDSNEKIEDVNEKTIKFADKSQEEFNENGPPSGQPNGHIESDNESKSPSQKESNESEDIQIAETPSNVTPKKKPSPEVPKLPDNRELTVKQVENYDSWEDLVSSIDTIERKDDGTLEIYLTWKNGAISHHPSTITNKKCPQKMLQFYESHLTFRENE
# T2: GST-Clr3 (S. pombe) (UniProt P56523)
# T2 sequence: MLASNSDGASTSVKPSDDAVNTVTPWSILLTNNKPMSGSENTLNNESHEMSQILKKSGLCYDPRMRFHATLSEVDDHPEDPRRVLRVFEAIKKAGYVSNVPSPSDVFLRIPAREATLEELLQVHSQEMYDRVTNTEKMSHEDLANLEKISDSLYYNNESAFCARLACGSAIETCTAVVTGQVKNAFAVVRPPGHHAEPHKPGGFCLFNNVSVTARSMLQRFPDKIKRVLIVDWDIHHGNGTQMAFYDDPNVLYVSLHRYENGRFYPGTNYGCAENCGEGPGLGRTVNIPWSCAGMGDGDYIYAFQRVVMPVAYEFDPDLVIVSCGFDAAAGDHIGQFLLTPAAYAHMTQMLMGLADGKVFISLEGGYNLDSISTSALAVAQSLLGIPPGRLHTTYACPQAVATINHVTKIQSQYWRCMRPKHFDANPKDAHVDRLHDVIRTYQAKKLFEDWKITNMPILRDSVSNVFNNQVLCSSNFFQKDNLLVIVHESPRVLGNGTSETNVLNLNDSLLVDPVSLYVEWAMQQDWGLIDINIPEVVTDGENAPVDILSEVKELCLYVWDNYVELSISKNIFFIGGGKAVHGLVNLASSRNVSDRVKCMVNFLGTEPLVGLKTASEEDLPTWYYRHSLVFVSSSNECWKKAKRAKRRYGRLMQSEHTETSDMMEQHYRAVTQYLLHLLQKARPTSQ
# T3: MBP-Clr6 (S. pombe) (UniProt O59702)
# T3 sequence: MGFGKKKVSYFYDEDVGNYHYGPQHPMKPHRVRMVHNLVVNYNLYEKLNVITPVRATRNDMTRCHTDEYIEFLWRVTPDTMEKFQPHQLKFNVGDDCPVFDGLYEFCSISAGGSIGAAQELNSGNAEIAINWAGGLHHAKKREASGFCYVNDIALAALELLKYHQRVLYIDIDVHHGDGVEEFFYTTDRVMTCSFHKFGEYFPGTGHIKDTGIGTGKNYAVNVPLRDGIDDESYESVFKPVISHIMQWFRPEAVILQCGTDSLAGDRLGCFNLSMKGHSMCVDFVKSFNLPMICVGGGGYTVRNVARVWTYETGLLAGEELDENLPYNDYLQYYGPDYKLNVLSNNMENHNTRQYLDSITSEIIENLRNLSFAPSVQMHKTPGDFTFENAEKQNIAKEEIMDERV
# B1: HA-Atf1 (wild type, expressed from P_(sty1)-HA-atf1) (protein, UniProt P52890 1-566)
# chain: MSPSPVNTSTEPASVAAVSNGNATASSTQVPENNQSDSFAPPSNNSQQNQQSSTIAPNGGAGSVANANPADQSDGVTPSFVGSLKLDYEPNPFEHSFGSTASVGQGNPSLNRNPSLSNIPSGVPPAFARTLLPPVSSIASPDILSGAPGIASPLGYPAWSAFTRGTMHNPLSPAIYDATLRPDYLNNPSDASAAARFSSGTGFTPGVNEPFRSLLTPTGAGFPAPSPGTANLLGFHTFDSQFPDQYRFTPRDGKPPVVNGTNGDQSDYFGANAAVHGLCLLSQVPDQQQKLQQPISSENDQAASTTANNLLKQTQQQTFPDSIRPSFTQNTNPQAVTGTMNPQASRTQQQPMYFMGSQQFNGMPSVYGDTVNPADPSLTLRQTTDFSGQNAENGSTNLPQKTSNSDMPTANSMPVKLENGTDYSTSQEPSSNANNQSSPTSSINGKASSESANGTSYSKGSSRRNSKNETDEEKRKSFLERNRQAALKCRQRKKQWLSNLQAKVEFYGNENEILSAQVSALREEIVSLKTLLIAHKDCPVAKSNSAAVATSVIGSGDLAQRINLGY
# B2: Atf1 (endogenous, in lysates of wild type or wis1-DD yeast strains) (protein, UniProt P52890 1-566)
# chain: B1 chain
# B3: Pcr1-3xFlag (protein, UniProt Q09926 1-171)
# chain: MTAKKKEVDDEKRRRILERNRIAASKFRQKKKEWIKELEQTANAAFEQSKRLQLLLSQLQQEAFRLKSQLLAHQGCQCSVKIRSVLTDFQTAHNALHSQHMAYRPVQPPPGDNMLESVVSVSPTQMHPSLQGLPPNQHPQMPPSSQQPNSDDVQQHMFSAAGLPRSLGGPI
# How the values were obtained:
# Assay in all cases: pull-down
# [1] = biological target: T1, 6His-Swi6 (heterochromatin protein Swi6^HP1) (S. pombe)
# [2] = biological target: T1, 6His-Swi6 (heterochromatin protein Swi6^HP1) (S. pombe); remark: listed apart in the source
# GST-Clr3 (S. pombe) = biological target: T2, GST-Clr3 (S. pombe)
# MBP-Clr6 (S. pombe) = biological target: T3, MBP-Clr6 (S. pombe)
# GST-Clr4 (S. pombe) = GST-Clr4 (S. pombe) (UniProt O60016)
Binder,binding [1],binding [2],binding (GST-Clr3 (S. pombe)),binding (MBP-Clr6 (S. pombe)),binding (GST-Clr4 (S. pombe))
B1,binds weakly,binds,–,–,–
B2,–,binds,binds,binds,binds
B3,–,binds,–,–,–
